# These are yes or no findings as the source states them, for the method shown. Binding seen in cells or lysates may run through a third protein.
# Amino acid sequences for entries named in this document (tags omitted). A change or cut given only in a name is not applied to a line headed by its entry.
# UniProt Q460N5: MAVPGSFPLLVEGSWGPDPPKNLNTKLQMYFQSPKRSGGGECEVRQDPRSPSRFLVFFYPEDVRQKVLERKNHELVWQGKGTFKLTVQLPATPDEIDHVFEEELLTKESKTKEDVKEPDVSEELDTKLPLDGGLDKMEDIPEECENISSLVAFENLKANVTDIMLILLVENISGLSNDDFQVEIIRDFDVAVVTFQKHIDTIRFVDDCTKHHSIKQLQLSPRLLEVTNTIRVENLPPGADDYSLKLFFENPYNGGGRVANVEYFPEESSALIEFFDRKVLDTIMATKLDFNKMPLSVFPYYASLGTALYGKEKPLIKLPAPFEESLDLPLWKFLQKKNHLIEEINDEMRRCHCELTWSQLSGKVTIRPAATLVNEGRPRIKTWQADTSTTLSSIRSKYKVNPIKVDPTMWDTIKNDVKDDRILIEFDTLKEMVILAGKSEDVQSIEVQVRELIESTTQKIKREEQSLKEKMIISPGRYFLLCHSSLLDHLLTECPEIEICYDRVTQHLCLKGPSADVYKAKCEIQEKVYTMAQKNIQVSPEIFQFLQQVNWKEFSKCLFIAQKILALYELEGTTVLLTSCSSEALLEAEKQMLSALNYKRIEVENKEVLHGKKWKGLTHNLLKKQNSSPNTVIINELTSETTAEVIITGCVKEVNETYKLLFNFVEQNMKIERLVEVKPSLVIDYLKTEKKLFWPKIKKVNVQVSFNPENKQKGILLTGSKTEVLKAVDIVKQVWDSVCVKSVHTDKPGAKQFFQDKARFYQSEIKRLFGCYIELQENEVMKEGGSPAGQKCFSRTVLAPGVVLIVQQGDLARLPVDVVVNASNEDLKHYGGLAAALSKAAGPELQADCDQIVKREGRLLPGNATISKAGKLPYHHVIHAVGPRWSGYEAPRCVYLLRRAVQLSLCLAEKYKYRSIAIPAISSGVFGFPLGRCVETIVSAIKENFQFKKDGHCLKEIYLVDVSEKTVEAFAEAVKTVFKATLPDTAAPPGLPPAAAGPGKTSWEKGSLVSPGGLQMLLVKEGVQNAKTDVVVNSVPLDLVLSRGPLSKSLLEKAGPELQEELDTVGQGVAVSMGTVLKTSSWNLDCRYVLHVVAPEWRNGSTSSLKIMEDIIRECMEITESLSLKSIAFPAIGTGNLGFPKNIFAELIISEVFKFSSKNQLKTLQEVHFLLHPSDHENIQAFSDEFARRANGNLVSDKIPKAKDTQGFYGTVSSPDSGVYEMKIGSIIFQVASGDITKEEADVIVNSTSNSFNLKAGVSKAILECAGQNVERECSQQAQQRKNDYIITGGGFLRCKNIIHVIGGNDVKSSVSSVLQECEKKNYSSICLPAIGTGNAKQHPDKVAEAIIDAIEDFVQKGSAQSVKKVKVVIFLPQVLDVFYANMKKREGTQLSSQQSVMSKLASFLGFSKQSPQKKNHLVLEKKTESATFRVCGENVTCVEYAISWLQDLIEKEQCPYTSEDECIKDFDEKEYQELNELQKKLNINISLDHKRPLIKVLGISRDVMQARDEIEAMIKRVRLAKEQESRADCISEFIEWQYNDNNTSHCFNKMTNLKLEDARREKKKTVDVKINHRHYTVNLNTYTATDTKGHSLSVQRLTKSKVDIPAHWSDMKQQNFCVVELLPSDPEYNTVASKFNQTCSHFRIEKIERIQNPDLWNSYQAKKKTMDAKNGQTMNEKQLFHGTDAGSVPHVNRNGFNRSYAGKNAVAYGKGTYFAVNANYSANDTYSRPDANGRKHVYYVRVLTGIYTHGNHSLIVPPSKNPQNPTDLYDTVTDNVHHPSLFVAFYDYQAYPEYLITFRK
# UniProt Q92769: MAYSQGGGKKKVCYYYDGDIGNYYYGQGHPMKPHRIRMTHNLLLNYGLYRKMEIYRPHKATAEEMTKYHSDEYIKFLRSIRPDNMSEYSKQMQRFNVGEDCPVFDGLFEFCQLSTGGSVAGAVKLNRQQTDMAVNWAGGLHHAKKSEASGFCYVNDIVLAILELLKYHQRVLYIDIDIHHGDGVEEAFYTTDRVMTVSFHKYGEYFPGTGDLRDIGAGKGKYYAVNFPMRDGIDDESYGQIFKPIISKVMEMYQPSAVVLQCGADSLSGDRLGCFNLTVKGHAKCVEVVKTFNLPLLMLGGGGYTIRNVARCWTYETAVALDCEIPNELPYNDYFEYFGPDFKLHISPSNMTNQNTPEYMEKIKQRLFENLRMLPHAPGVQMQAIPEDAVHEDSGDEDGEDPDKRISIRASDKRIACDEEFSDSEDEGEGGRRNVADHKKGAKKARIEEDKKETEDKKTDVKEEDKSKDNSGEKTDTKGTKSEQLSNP
# Legend:
# [1] = molecular target: YFP-tagged full-length PARP14 G832E MD1 mutant (human) (UniProt Q460N5); test: co-IP; GFP-Trap magnetic agarose beads on lysates of 293T cells transfected with YFP-PARP14 plasmids; Triton X-100 lysis buffer (50 mM tris-HCl pH 8.0, 100 mM NaCl, 1% Triton X-100) with 5 mM MgCl2, Benzonase, olaparib and PARGi; 2 hours at 4°C; five washes with 800 mM NaCl buffer; Western blotting of the partners
# [2] = molecular target: YFP-tagged full-length PARP14 wild type (human) (UniProt Q460N5); test: as above
substance,measurement,setting,value
HDAC2 (from UniProt Q92769 1-488),binding,[1],no binding
same,binding,[2],no binding
